Measured values as given in patent US6686333B1, “Inhibition of HIV replication using soluble Tat peptide analogs” (priority 1996, dated 2004).
Some entries share one result that the patent states for a list of compounds.

System: Tat transactivation of the HIV-1 promoter
Test: Transfection and CAT assay: Tat transactivation of HIV-1 LTR-CAT reporter in electroporated CEM lymphocytes
Format: cell-based
Details: Tat protein 1 μg, peptide 5 μg
Protocol: Initial studies focused on the analysis of a series of Tat peptide analogs, containing various amino acid substitutions, for their ability to inhibit Tat transactivation of the HIV-1 promoter. CEM lymphocytes, grown to early- to mid-log phase, were electroporated with the Tat protein (1 μg), Tat core peptide 36-50 (5 μg) and the HIV-1 LTR-CAT reporter (5 μg).
Cells were electroporated as described previously (Kashanchi F, et al. (1992), Nucleic Acids Res, 20:4673-4674). CEM CD4^+ lymphocytes (12D7) (as well as U1 and HeLa cells described in subsequent examples) were kept at a density of 0.5 to 0.8×10^6 cells/ml with media added daily. Typically, 5×10^6 cells were electroporated with purified peptides, Tat protein and/or 5 μg of a reporter plasmid. Synthetic Tat peptides were purified by HPLC to 95 percent purity (Peptide Technologies Corporation, Gaithersburg, Md.). All peptides were analyzed for purity on a 4-20 percent gradient SDS/PAGE followed by silver staining. Recombinant Tat protein was purified by reverse phase HPLC and tested for functional activity in an in vitro transcription assay and in vivo electroporation into CEM cells (Kashanchi F, et al. (1992), Nucleic Acids Res, 20:4673-4674; Bohan Calif., et al. (1992) Gene Expr, 2:391-407). Tat peptide, Tat protein, and the reporter HIV LTR-CAT were mixed with cells and electroporated using a cell porater apparatus (Gibco/BRL, Gaithersburg, Md.). Cell mixtures were electroporated at 800 μF, 230 volts, in RPMI 1640 media without fetal calf serum. Following electroporation, cells were plated in 10 ml of complete media and samples collected 48 hours later for either CAT assay, p24 Gag antigen capture assay or northern blot analysis. Samples receiving rTNF-α (R & D System, Minneapolis, MN) after electroporation were collected 48 hours post-treatment for p24 Gag antigen capture assay (ABI, Bethesda, Md.).

Row | Substance | decrease in activity (Tat transactivation)
1 | V-C-F-T-T-A-A-L-G-I-S-Y-G-R-K (SEQ ID NO:3) (VCFTTAALGISYGRK) [Tat 36-50 (41)] | < 5%
2 | V-C-F-T-T-K-A-L-G-I-A-Y-G-R-K (SEQ ID NO:5) (VCFTTKALGIAYGRK) [Tat 36-50 (46)] | < 5%
3 | V-C-F-T-T-K-A-L-G-I-S-A-Y-G-R-K (SEQ ID NO:6) (VCFTTKALGISAGRK) [Tat 36-50 (47)] | < 5%
4 | V-C-F-T-T-K-A-L-S-I-S-Y-G-R-K (SEQ ID NO:4) (VCFTTKALSISYGRK) [Tat 36-50 (44)] | < 5%
